The values that follow come from PubChem BioAssay AID2685 (National Center for Advancing Translational Sciences (NCATS), 2010).

As usually defined, the AC50 is the concentration at which the activity in the assay is half-maximal. Low values mean greater potency, high ones weaker potency.

The list shows a part of the results. The main result of the screen is listed elsewhere. These columns were measured beside it and carry no call. Most of these compounds were active or inconclusive in the main read-out, so they are no random draw. Potencies come from curve fits of mixed quality, noted in brackets.

A short description of this assay: qHTS Assay for Lipid Storage Modulators in Drosophila S3 Cells.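 On cell number change: cells counted by Cell Tracker Red CMTPX staining in the red channel.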 To be noted: BODIPY lipid droplet fluorescence, 18-24 h; for cell number change: measured here: cell count max response, cells fed with added oleic acid. The essentials:
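Drosophila S3 cells got compounds at several concentrations plus oleic acid (400 uM solution). Laser-scanning cytometry with 488 nm excitation read lipid droplets at 500-530 nm and cells at 575-640 nm. Percent activity was relative to 20 uM Triacsin C.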
In general terms: Quantitative high-throughput screening tests each substance at several concentrations.

Where [1] appears, read: measured here: lipid fluorescence (Fed channel) AC50, cells fed with added oleic acid.
Where [2] appears, read: measured here: cell number channel AC50, cells fed with added oleic acid.

For `Cn1c(=O)c2c(nc(CN3CCN(Cc4ccccc4)CC3)n2Cc2ccc(Cl)cc2)n(C)c1=O`, the cell number change is -23%. For the same molecule, the AC50 under setting [1] is 0.00517 µM [rising, full curve, poor fit]. For `O=C(CN1CCCCCC1)N/N=C/c1cccc(Cl)c1`, the cell number change was -4.65%. The concentration at half-maximal activity (AC50) under setting [2] was 6.51 µM [rising, single point]. Consider `CCCC1C(C#N)=C(N)Oc2n[nH]c(C(C)(C)C)c21` (centres undefined), for which the AC50 was 3.26 µM [rising, partial curve] under setting [2] and 3.66 µM [rising, partial curve] under setting [1]. For the molecule `COc1ccc(C(=O)NCc2ccccc2CN2CCCC2)cc1S(=O)(=O)N1CCOCC1`, the cell number change is -1.87%. For the same molecule, the AC50 under setting [1] is 0.206 µM [rising, full curve, poor fit]. Turning to `CCOc1ccc(C(C)C)cc1S(=O)(=O)n1ccnc1C`, the cell number change is 6.86%. Consider `Cc1[nH]c2c([N+](=O)[O-])cccc2c1C`, for which the cell number change was -0.874%. Besides, under setting [2], the AC50 is 3.66 µM [falling, single point]. Besides, the AC50 under setting [1] was 6.51 µM [falling, single point].

For the molecule `CCCCOc1ccc(CN=C(N)N)cc1Cl`, the cell number change is -2.17%.

With `Cc1cc(-c2ccccc2)nc2cc(C(=O)NCc3ccco3)nn12`, the cell number change is -1.6%. Moreover, the AC50 under setting [1] is 4.11 µM [rising, single point]. Consider `O=C(Cn1ncc2c3ccccc3n(Cc3ccccc3)c2c1=O)N1CCN(c2ccccn2)CC1`, for which the cell number change was found to be 10.1%. In addition, under setting [1], the AC50 was 0.13 µM [rising, full curve, poor fit]. As to `O=C(c1ccc2c(c1)OCO2)N1CCN(c2cccc(C(F)(F)F)c2)CC1`, the cell number change is -16.7%. In addition, the AC50 under setting [1] is 0.00461 µM [rising, full curve, poor fit]. As for `O=C(NCc1cccs1)C1CCCN(C(=O)Nc2ccc(F)cc2)C1` (centres undefined), the cell number change is 11.8%. Regarding `COc1ccc(OC)c(CN2C(=O)CCC2(C)C(=O)NC2CCCCCC2)c1` (centres undefined), the cell number change was -59.2%. Besides, under setting [2], the half-maximal activity concentration (AC50) is 5.8 µM [falling, partial curve]. The AC50 under setting [1] was 4.11 µM [falling, partial curve].

On to `Clc1ccc(CNc2ncccn2)cc1`, for which the cell number change stood at 33.3%. The AC50 under setting [2] is 32.6 µM [rising, single point]. For the molecule `O=C(O/N=C1\CCCc2ccccc21)C1CC1`, the cell number change is 54.8%. For `O=C(Nc1ccc(Cl)cc1)c1cc2nc(C3CC3)cc(C(F)(F)F)n2n1`, the cell number change was found to be 71%. Further, under setting [2], the AC50 was 18.4 µM [rising, single point]. Regarding `Cc1cc(O)c(C(=O)/C=C/c2ccc(C(C)C)cc2)c(=O)o1`, the cell number change was 146%. In addition, the AC50 under setting [2] is 29.1 µM [rising, single point].

With `OC(COc1c(F)cc(Br)cc1F)CN1CCN(c2ccc(F)cc2)CC1` (centres undefined), the cell number change is -55.8%. Moreover, the concentration at half-maximal activity (AC50) under setting [2] was 29.1 µM [falling, single point]. Moreover, the AC50 under setting [1] was 29.1 µM [falling, single point]. For `FC(F)(F)c1cc(NCc2cccs2)n2ncnc2n1`, the AC50 under setting [1] was 6.51 µM [falling, single point]. On the same count and under the same terms, for `Cc1nn(-c2ccc(F)cc2)c2sc(C(=O)N3CCCCCC3)cc12` the value was 4.11 µM [rising, partial curve]. `CC1CN(Cc2csc(-c3ccc(Cl)cc3)n2)CC(C)O1` (centres undefined): the cell number change came to 4.33%. Besides, under setting [1], the AC50 is 2.91 µM [rising, single point]. In the case of `CCOc1ccccc1NC(=O)CCCNC(=O)Cn1cnc2sc(C)c(C)c2c1=O`, the cell number change was 27.9%. Also, the AC50 under setting [1] is 29.1 µM [rising, single point].

`O=C(CSc1cnc2ccccc2n1)NC1CCCC1`: the cell number change turned out to be 35.7%. The AC50 under setting [1] was 0.13 µM [falling, full curve, poor fit]. Consider `C=CCn1c2ccccc2c2n[nH]c(=S)nc21`, for which the cell number change was -4.67%. For the molecule `CCOc1ccc(CCN2C(=O)C(=O)N([C@H](CCCN(C)Cc3ccccc3)CNCc3ccccc3)C[C@@H]2C(C)C)cc1`, the cell number change amounted to 1.31%. The concentration at half-maximal activity (AC50) under setting [2] was 6.51 µM [falling, single point]. For the same molecule, the AC50 under setting [1] was 6.51 µM [falling, single point]. With `Cc1c(C(=O)O)cnc2c([N+](=O)[O-])cnn12`, the cell number change is -6.78%. The AC50 under setting [1] was 0.58 µM [falling, single point]. Regarding `Cn1nc(C(C)(C)C)c([N+](=O)[O-])c1C(N)=O`, the cell number change is -32.3%.

As for `Cc1ccc(NC2=C/C(=N/S(=O)(=O)c3cccs3)c3ccccc3C2=O)cc1C`, the cell number change is 125%. Further, the AC50 under setting [2] is 29.1 µM [rising, single point]. As to `CC(NC(=O)c1ccccc1NC(=O)CN1CCc2ccccc2C1)c1ccccc1` (centres undefined), the cell number change was determined as 11.3%. Consider `CC(=O)C(C)Oc1cc(C)cc2oc(=O)c(C)c(C)c12` (centres undefined), for which the cell number change was 39.1%. For the same molecule, the AC50 under setting [2] is 7.31 µM [rising, partial curve, poor fit]. Take `Cc1cccc(Nc2c([N+](=O)[O-])ccc3nonc23)c1`: under setting [1], the AC50 was 6.51 µM [rising, single point].

For the molecule `C[C@H](NC(=O)c1nc[nH]c1C(=O)N[C@@H](C)c1ccccc1)c1ccccc1`, the cell number change is -46.5%. In addition, under setting [2], the half-maximal activity concentration (AC50) is 16.4 µM [falling, single point]. For `CC1Cc2ccccc2N1c1ncnc2c1nnn2Cc1ccccc1` (centres undefined), the cell number change is -14%. Further, the AC50 under setting [1] is 1.3 µM [rising, full curve, poor fit]. For the molecule `CCOC(=O)c1cnn2c(C(F)(F)F)cc(-c3cn(C)nc3C)nc12`, the cell number change worked out at 6.47%. Moreover, the half-maximal activity concentration (AC50) under setting [1] is 0.461 µM [rising, full curve, poor fit]. With `COc1ccc(CCNC(=O)c2nn(C)c3c2CS(=O)(=O)c2ccccc2-3)cc1OC`, the cell number change was -23.7%. For the same molecule, the AC50 under setting [2] is 4.11 µM [falling, full curve, poor fit]. `COCCSc1ccccc1C(=O)Nc1cc(C)ccn1`: the cell number change is -0.569%. On to `CCN(CC)CCNC(=O)c1cc(-c2cccnc2)nc2ccc(S(=O)(=O)N3CCC(C)CC3)cc12`, for which the cell number change is 4.42%. The AC50 under setting [1] was 29.1 µM [rising, single point]. For the molecule `CC(C)(C)c1ccc(Cn2nnc3c(=O)[nH]c(C4CCCN(C(=O)c5cccs5)C4)nc32)cc1` (centres undefined), the cell number change is -13.2%. Also, under setting [1], the AC50 was 35.5 µM [rising, single point].

Consider `CCOCCCNC(=O)c1c[nH]c2ccc(S(=O)(=O)Nc3cccc(OC)c3)cc2c1=O`, for which the AC50 under setting [2] is 0.651 µM [rising, single point] and the AC50 under setting [1] was 0.58 µM [rising, single point].

For `COc1ccc2c3c(cccc13)C(=O)N(O)C2=O`, the cell number change was 45.8%. Also, under setting [2], the AC50 was 18.4 µM [rising, single point].

Take `COc1ccc(CNCCCC(=O)Nc2c(Cl)ccc(C)c2Cl)cc1OC`: the cell number change amounted to 18.8%. Moreover, the AC50 under setting [1] is 4.11 µM [rising, full curve, poor fit]. Turning to `COC(=O)c1sccc1NC(=O)Nc1ccc(OC)c(OC)c1`, the cell number change is -6.49%. Moreover, the AC50 under setting [1] was 6.51 µM [rising, partial curve, poor fit]. Take `NS(=O)(=O)c1ccc(NN=C2CCN(Cc3ccccc3)CC2)c([N+](=O)[O-])c1`: the cell number change stood at 4.3%. For the same molecule, under setting [2], the AC50 was 0.164 µM [falling, single point]. For the same molecule, under setting [1], the AC50 was 1.16 µM [rising, partial curve, poor fit]. For `CCOc1cc(/C=C2/N=C(c3ccc(C(C)(C)C)cc3)OC2=O)cc(Cl)c1OS(C)(=O)=O`, the cell number change came to 5.59%. With `COc1ccc(OC)c(NC(=O)CSc2ccc(-c3ccco3)nn2)c1`, the cell number change was -12.7%. Further, the AC50 under setting [1] was 16.4 µM [falling, single point]. For the molecule `CCOc1ccc(NC(=O)C2CCCN2C(=O)OCc2ccccc2)cc1` (centres undefined), the cell number change came out at 38.2%.

Regarding `CC(C)(Oc1ccc(Br)cc1)C(=O)N1CCc2ccccc21`, the cell number change is -21.4%. Moreover, under setting [1], the AC50 was 0.366 µM [rising, partial curve].

On to `O=C(Nc1ncn[nH]1)c1cccc(F)c1`, for which the cell number change amounted to 19%. Under setting [2], the AC50 was 0.092 µM [falling, full curve, poor fit]. Consider `CC(/C=C1\N=C(SCc2ccccc2)SC1=O)=C\c1ccccc1`, for which the cell number change was -1.61%. In the case of `COc1ccc(O)c(/C=N/NC(=O)c2ccc(CSc3nc(C)cc(C)n3)cc2)c1`, the cell number change was -54.3%. The AC50 under setting [2] was 29.1 µM [falling, single point]. For the same molecule, the AC50 under setting [1] is 29.1 µM [falling, single point].

On to `CN(C[C@H](Cc1ccccc1)N(C[C@H](Cc1cccc2ccccc12)N(CCc1ccccc1)N=O)N=O)N=O`, for which the cell number change came to 10.4%. Moreover, under setting [1], the AC50 was 2.06 µM [rising, full curve, poor fit]. `COc1cccc(C(=O)OCC(=O)c2c(N)n(C)c(=O)n(C)c2=O)c1`: the cell number change is 36.2%. For the same molecule, the AC50 under setting [2] is 20.6 µM [rising, single point]. Take `Cc1cccc(NC(=O)NNC(=O)c2nn(C)cc2Br)c1`: the AC50 under setting [1] is 29.1 µM [falling, single point]. As for `CC(C)C(C(=O)N1CCN(C(=O)OC(C)(C)C)CC1)n1cc(-c2cn([C@@H](C)C(=O)N3CCN(C(=O)OC(C)(C)C)CC3)nn2)nn1` (some centres undefined), the cell number change was 15.4%. For the same molecule, the AC50 under setting [1] was 14.6 µM [rising, single point]. `CC(NC(=O)[C@H](C)NC(=O)C1CC(=O)N(c2ccc3c(c2)OCO3)C1)c1ccccc1` (some centres undefined): the cell number change is 0.824%.

As to `CCCN(CC(=O)Nc1ccccc1C)C(=O)c1ccc(N2CCOCC2)c([N+](=O)[O-])c1`, the cell number change stood at 0.851%. In addition, the AC50 under setting [1] was 8.2 µM [falling, partial curve]. On to `O=C(NC(=S)Nc1ccc(Br)c(Cl)c1)C1CC1`, for which the cell number change came to 5.67%. In addition, the AC50 under setting [2] is 0.00461 µM [rising, full curve, poor fit]. The half-maximal activity concentration (AC50) under setting [1] is 2.06 µM [rising, partial curve, poor fit].

Take `CCN1CCN(CC(O)COc2ccc3c(c2)CCC3)CC1` (centres undefined): the cell number change came out at 28.6%. The concentration at half-maximal activity (AC50) under setting [1] is 4.61 µM [falling, full curve, poor fit]. As for `O=C(NCC(=O)N1CCCCCCC1)c1ccco1`, the cell number change was -0.413%. `CCOC(=O)C1CCN(c2nc3ccccc3nc2C(C#N)C(=O)NCCc2ccccc2)CC1` (centres undefined): the cell number change was -22.5%. The concentration at half-maximal activity (AC50) under setting [2] is 2.31 µM [falling, single point]. The concentration at half-maximal activity (AC50) under setting [1] is 3.66 µM [falling, single point]. As to `COc1ccc(-n2ccnc(SCC(=O)NC3CCCCC3)c2=O)cc1`, the cell number change is -7.67%. For the same molecule, the AC50 under setting [1] was 0.103 µM [rising, full curve, poor fit]. On to `CCCN(N=Nc1cccc([N+](=O)[O-])c1)c1cccc([N+](=O)[O-])c1`, for which the cell number change was found to be 31.6%. Further, the AC50 under setting [2] is 18.4 µM [rising, single point]. Under setting [1], the AC50 was 6.51 µM [rising, single point].
